Measured values reported in paper PMC7392006.
Construct, isoform or probe ends are uncertain for at least one entry. A negative result means that nothing was seen under these conditions. For part of these data: Results from cells or extracts need not show a direct contact.

Tests used:
[1] = biological target: endogenous p53 (nuclear extract) (UniProt P04637); assay: EMSA; settings: 5 mM Hepes pH 7.6, 100 mM KCl, 5 mM MgCl2, 1.25 mM DTT, 0.05% NP-40, 2.25% glycerol, 1 ug poly(dI.dC), 6% polyacrylamide gel, temperature not stated, protein in an extract, label: biotin end label
[2] = biological target: p53 (recombinant, Active Motif 81091) (Homo sapiens) (UniProt P04637); assay: EMSA; settings: + JMJD2D (E. coli cell-free), binding abolished; 5 mM Hepes pH 7.6, 100 mM KCl, 5 mM MgCl2, 1.25 mM DTT, 0.05% NP-40, 2.25% glycerol, 1 ug poly(dI.dC); 6% polyacrylamide gel; temperature not stated; commercial protein; label: biotin end label
[3] = SK-Hep1 nuclear extract, increased by JMJD2D knockdown, inhibited by JMJD2D restoration

Row | Sequence | binding result ([1]; + JMJD2D wild type (E. coli cell-free), binding abolished, legend says endogenous p53) | binding result ([1]; + JMJD2D-S200M (E. coli cell-free), binding abolished, legend says endogenous p53) | binding result [1, 3] | binding result [2]
1 | CTGGCCGTCAGGAACATGTCCCAACATGTTGAGCTCT (double strand) [p21 promoter p53 element] | no binding | no binding | binds | no binding
2 | GCGCGCCTGCAAGTCCTGACTTGTCCGCGGCG (double strand) [PUMA promoter p53 element] |  |  | binds | no binding
